No constants are given. Whether binding was seen depends on the method and setting. In cells and extracts the contact can be indirect. Some entries that bind do so weakly or less than the wild type.
Legend:
Experiment in all cases: co-IP; primary antibody on Protein A/G magnetic beads in PBS with 0.3% Triton X-100; hippocampal tissue of 3-month-old male rats (WT; APP KO or SNCA KO for comparison) homogenized in RIPA lysis buffer; lysate with beads overnight at 4 °C; four washes with PBST; western blotting
[1] = target: Grp78 (rat (endogenous in hippocampus)) (UniProt P06761)
[2] = target: T1, VDAC2 (rat (endogenous in hippocampus)) (UniProt P81155)
T1 sequence: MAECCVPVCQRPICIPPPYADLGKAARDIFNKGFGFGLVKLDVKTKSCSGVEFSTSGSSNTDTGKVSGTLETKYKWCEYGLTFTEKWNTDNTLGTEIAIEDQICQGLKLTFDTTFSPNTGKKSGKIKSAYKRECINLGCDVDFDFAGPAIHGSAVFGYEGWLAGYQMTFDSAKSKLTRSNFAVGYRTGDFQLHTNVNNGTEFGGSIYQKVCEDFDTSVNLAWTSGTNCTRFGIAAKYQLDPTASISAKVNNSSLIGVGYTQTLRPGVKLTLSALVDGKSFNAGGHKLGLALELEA

Sequences of proteins named here, by UniProt entry; tags and fusion partners are left off. Residues count along the entry.
UniProt P06761, residues 19-654: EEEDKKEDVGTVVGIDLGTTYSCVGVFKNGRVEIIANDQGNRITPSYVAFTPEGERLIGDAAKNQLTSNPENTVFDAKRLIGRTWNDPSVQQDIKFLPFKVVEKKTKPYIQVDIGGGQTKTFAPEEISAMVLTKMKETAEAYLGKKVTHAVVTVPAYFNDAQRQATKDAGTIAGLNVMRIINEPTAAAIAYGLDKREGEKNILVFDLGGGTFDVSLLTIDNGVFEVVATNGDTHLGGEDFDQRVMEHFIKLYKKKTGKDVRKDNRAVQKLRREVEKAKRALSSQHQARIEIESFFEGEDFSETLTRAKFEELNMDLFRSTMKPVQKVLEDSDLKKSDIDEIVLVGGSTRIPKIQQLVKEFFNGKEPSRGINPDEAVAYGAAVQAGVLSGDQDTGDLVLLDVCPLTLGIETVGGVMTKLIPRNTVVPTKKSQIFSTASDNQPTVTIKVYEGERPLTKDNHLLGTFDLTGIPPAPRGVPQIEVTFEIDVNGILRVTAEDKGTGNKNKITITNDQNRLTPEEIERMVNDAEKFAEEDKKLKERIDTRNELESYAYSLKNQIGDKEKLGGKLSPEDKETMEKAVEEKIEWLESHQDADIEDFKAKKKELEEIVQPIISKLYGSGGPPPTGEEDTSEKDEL
UniProt P29994: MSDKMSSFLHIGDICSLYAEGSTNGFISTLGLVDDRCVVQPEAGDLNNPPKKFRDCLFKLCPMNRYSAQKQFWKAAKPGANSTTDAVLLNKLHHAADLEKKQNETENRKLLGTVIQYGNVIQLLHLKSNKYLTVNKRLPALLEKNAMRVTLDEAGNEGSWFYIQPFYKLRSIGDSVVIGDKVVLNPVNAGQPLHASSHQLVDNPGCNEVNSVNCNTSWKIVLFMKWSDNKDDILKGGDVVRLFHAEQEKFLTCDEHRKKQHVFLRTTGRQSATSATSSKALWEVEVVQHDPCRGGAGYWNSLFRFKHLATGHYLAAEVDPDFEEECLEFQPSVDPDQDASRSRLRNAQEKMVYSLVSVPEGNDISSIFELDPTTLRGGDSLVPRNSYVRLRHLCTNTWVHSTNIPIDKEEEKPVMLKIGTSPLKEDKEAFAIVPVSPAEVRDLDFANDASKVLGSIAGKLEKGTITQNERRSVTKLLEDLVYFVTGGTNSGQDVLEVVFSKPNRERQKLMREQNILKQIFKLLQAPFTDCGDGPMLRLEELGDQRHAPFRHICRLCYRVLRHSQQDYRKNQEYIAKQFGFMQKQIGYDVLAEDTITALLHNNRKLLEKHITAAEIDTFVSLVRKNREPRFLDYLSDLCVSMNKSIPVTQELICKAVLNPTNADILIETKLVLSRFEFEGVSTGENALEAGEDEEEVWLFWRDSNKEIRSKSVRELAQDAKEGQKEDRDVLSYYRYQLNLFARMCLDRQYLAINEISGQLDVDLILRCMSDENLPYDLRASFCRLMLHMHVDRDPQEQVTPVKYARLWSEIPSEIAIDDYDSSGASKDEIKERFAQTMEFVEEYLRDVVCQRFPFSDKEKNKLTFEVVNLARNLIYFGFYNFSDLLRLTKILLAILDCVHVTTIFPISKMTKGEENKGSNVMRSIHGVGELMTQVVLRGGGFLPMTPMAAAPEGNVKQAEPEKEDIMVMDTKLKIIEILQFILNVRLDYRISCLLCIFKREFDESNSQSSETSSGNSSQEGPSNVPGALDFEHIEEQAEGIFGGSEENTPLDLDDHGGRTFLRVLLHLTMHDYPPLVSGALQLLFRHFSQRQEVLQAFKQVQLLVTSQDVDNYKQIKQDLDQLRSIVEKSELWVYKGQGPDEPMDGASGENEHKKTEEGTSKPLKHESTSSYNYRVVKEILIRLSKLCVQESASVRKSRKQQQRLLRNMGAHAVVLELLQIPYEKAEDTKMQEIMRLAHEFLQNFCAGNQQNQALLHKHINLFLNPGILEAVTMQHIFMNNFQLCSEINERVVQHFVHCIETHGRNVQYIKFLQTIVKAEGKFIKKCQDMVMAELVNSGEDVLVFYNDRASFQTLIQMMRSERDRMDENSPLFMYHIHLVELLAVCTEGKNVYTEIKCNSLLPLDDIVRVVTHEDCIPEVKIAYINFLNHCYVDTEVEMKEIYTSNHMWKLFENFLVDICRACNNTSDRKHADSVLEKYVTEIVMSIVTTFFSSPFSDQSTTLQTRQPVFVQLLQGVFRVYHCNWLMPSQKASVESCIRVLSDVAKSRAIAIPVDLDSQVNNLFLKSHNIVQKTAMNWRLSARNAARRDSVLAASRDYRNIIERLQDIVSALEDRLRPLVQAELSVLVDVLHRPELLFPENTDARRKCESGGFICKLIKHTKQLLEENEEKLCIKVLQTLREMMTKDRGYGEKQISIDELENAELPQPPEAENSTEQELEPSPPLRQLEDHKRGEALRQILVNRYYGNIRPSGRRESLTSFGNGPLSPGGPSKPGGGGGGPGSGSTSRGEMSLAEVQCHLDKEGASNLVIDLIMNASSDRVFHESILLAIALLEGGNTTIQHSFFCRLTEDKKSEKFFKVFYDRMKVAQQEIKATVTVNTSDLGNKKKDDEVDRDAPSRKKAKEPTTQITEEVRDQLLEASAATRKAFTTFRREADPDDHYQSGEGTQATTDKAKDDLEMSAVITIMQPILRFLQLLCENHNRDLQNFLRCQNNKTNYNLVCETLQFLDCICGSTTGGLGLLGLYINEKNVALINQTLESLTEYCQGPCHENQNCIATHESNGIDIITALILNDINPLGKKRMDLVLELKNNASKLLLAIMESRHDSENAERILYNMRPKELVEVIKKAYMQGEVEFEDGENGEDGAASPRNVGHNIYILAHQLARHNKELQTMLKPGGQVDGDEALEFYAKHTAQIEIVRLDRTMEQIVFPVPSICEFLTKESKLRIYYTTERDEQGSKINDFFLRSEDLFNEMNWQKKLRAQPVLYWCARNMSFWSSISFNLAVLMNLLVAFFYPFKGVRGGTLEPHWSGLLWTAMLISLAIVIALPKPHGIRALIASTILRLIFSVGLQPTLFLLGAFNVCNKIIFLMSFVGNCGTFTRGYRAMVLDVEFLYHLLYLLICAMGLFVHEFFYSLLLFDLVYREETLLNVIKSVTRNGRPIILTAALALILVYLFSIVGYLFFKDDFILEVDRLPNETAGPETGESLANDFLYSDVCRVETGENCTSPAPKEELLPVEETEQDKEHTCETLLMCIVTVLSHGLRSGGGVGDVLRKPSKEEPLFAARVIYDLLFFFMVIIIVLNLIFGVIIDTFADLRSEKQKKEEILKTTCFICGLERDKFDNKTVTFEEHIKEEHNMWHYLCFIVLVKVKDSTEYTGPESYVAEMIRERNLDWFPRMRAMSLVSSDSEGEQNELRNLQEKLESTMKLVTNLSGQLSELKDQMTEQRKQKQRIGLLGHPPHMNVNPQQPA
UniProt P08592, residues 18-770: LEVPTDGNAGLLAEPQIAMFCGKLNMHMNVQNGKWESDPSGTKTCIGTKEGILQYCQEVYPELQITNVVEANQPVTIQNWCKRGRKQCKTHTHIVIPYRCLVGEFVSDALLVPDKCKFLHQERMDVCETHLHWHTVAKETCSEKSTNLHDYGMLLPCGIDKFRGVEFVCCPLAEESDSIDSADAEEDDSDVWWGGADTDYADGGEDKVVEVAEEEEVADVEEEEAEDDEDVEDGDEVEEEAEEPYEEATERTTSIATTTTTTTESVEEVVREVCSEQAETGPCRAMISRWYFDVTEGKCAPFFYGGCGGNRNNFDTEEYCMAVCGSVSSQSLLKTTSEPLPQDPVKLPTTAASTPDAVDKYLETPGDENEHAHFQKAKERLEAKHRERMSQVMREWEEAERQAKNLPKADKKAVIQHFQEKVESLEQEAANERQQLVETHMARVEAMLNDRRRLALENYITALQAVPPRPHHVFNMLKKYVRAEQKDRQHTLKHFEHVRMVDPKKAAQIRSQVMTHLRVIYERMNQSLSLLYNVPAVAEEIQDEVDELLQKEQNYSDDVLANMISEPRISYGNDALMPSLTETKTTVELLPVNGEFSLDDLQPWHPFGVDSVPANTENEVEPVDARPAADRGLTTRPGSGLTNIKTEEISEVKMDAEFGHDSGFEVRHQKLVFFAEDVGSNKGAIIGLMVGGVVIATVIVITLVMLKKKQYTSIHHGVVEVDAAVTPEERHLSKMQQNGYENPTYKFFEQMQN
UniProt P48721, residues 47-679: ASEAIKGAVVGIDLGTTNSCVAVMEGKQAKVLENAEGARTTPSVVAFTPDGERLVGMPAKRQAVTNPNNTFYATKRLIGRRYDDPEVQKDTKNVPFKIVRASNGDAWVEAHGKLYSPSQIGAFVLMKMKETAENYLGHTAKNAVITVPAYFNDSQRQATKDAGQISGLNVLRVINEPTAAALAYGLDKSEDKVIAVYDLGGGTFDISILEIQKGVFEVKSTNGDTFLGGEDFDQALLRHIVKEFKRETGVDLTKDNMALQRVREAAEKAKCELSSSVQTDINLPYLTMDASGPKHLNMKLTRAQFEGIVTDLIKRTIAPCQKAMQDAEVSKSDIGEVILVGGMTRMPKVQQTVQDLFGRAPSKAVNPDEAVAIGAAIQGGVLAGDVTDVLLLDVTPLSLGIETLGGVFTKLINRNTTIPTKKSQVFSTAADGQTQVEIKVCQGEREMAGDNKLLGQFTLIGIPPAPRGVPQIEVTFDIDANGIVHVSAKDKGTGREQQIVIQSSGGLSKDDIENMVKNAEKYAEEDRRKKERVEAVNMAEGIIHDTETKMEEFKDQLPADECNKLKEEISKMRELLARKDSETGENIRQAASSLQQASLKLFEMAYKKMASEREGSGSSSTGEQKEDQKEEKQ
UniProt Q9Z2L0: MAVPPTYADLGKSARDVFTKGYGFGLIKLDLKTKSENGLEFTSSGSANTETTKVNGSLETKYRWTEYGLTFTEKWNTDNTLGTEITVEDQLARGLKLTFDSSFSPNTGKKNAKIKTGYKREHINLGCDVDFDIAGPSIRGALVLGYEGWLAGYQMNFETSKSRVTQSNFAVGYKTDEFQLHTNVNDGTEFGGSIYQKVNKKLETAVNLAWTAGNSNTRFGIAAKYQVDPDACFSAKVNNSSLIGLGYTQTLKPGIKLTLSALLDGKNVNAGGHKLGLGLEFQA

[3] = target: IP3R1 (rat (endogenous in hippocampus)) (UniProt P29994)

Full-length APP (from UniProt P08592 18-770)
binding [1]: binds
binding [2]: binds

Grp75 (from UniProt P48721 47-679)
binding [3]: binds
binding [2]: binds

IP3R1 (from UniProt P29994 1-2750) (receptor)
binding [1]: binds

VDAC1 (from UniProt Q9Z2L0 1-283)
binding [2]: binds
